The values below come from article PMC7275032.

Results are given in words; binding and its absence hold for the method and conditions named. Binding seen in cells or lysates may run through a third protein. A yes stands for co-enrichment or nearness to the bait. Other partners may have been found. For some assays here: No binding means not detected with the bait.

What all share (test): affinity purification with mass spectrometry; proteins HA-epitope tagged at their endogenous loci; soluble N. crassa extract in IP buffer (20 mM HEPES pH 7.4, 150 mM KOAc, 2 mM MgCl2, 1 mM DTT); anti-HA DynaBeads, 1 h at 4 °C; washes with Tween-20
For test [1], the target named is T1, SPA-2 (polarisome protein) (N. crassa) (UniProt V5IQM7).
T1 sequence: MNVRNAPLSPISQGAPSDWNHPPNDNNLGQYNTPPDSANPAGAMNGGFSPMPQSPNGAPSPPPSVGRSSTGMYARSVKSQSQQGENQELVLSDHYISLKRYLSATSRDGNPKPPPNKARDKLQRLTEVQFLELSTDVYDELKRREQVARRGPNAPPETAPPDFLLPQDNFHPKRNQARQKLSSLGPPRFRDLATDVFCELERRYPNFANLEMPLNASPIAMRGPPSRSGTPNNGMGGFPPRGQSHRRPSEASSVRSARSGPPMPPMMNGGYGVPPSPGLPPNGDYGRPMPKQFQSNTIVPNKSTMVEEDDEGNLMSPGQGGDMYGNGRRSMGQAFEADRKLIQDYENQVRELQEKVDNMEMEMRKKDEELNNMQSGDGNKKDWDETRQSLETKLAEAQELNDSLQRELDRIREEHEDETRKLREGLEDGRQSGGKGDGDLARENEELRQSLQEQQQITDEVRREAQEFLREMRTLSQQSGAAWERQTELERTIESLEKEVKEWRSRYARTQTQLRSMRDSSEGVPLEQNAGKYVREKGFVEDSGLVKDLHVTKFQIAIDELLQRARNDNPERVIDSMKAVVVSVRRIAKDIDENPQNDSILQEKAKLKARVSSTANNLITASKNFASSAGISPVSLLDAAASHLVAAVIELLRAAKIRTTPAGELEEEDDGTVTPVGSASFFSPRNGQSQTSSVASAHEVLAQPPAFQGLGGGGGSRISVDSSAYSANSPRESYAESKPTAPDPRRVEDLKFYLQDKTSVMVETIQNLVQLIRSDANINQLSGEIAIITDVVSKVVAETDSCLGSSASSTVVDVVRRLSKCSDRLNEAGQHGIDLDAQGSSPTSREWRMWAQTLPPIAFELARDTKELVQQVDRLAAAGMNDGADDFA

Test [2] deals with myosin V motor (MYO-5) (N. crassa).
Test [3] concerns the target JANUS-1 (JNS-1) (N. crassa) (UniProt Q1K4U3).

As for myosin V motor (MYO-5) (N. crassa), the binding result in test [1] is recorded as “binds”.
Take JANUS-1 (JNS-1) (from UniProt Q1K4U3): in test [1], the binding entry is “binds”.
In the case of GYP-3 (single N. crassa Msb homolog), the binding entry in test [1] is “no binding”.

B1: SPA-2 (polarisome protein) (protein, UniProt V5IQM7 1-888)
chain: T1 sequence
For the molecule B1, the binding result in test [2] and in test [3] was “binds” in each case.
